Positions count from the first letter of the chain named. The entries are a selection whose mix differs from that of the whole data set. The calls were merged from several studies; some rest on single wells. The list shows a part of the results.
Each compound was assayed against T1, OR2T3 (Homo sapiens) (UniProt Q8NH03). Details: stereoisomer not certain.
T1 sequence (whole entry): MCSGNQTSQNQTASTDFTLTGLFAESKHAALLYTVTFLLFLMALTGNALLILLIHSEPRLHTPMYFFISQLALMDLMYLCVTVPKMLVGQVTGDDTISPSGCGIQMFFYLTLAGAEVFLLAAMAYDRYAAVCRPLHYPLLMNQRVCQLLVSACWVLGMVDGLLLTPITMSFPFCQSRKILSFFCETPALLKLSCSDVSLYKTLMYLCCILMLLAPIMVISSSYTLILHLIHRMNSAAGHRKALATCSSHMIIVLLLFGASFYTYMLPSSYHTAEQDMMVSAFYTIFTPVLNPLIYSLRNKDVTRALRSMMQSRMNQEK
Method in brief: (§1)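 Whether a receptor–molecule pair is responsive (active) rests on the original authors' judgment that its measured signal was statistically different from baseline. Pairs without that judgment are non-responsive (inactive). Sources used varied assay methods, commonly transient luciferase assays in mammalian cell lines.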
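Note: active if original authors judged signal statistically different from baseline.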

Odorant receptor agonist call, inactive:
CC12C=CCC1C1CCC3=CC(=O)CCC3(C)C1CC2 (stereo not given)
CCCCCC(=O)O
CCCC(=O)O
CC(C)CCC(=O)O
C=CCc1ccc(OC)c(OC)c1
CC=Cc1ccc(O)c(OC)c1
O=C1CCCCCCCCCCCCCCO1
CC(C)C(=O)O
C=CC(C)(O)CCC=C(C)C (stereo not given)
COc1cc(C)ccc1O
CCCCCCCC=O
COc1cc(C=O)ccc1O
CC(=O)OCC=C(C)CCC=C(C)C
COc1ccccc1O
c1ccc(Oc2ccccc2)cc1
CCCCO
CC(=O)OC1CC2CCC1(C)C2(C)C (stereo not given)
CC1CCC(C(C)C)C(O)C1 (stereo not given)
CC12C=CCC1C1CCC3CC(=O)CCC3(C)C1CC2 (stereo not given)
C=CCc1ccc(OC(C)=O)c(OC)c1
O=C1CCCCCCCCCCCC(=O)OCCO1
CCCCCCCCCCC=O
CC(=O)OC(C)(C)C1CC=C(C)CC1 (stereo not given)
CC12CCC(CC1)C(C)(C)O2
CCCCCOC(C)=O
CC(C)CC(=O)O

Odorant receptor agonist call, active:
CC1COCc2cc3c(cc21)C(C)(C)C(C)C3(C)C (stereo not given)

What follows are compounds tested against T2, OR2T34 (Homo sapiens) (UniProt Q8NGX1). Details: stereoisomer not certain.
T2 sequence (whole entry): T1 sequence (whole entry) with Y109H, T202M, M204T, A214T, H239R, P267R
Method in brief: as §1

Odorant receptor agonist call, inactive:
O=C1CCCCCCCCCCCCCCO1
C=CC(C)(O)CCC=C(C)C (stereo not given)
CC(=O)OC1CC2CCC1(C)C2(C)C (stereo not given)
CC12C=CCC1C1CCC3CC(=O)CCC3(C)C1CC2 (stereo not given)
C=CCc1ccc(OC(C)=O)c(OC)c1
CC(=O)OC(C)(C)C1CC=C(C)CC1 (stereo not given)

These compounds were tested against T3, OR2T4 (Homo sapiens) (UniProt Q8NH00). Details: stereoisomer not certain.
T3 sequence (whole entry): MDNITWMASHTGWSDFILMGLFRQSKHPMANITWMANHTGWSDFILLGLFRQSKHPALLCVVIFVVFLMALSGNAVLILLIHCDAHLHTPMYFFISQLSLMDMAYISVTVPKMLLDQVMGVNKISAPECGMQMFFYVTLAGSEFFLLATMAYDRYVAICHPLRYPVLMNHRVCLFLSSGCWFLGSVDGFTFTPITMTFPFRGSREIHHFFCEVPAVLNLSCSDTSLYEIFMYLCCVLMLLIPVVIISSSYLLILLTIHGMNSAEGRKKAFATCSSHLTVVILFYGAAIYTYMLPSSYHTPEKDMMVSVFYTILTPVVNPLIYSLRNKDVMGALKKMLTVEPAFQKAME
Method in brief: as §1

Odorant receptor agonist call, inactive:
CCCCCC(=O)O
CCCC(=O)O
C=CC(C)(O)CCC=C(C)C (stereo not given)
CCCCCCCC=O
COc1cc(C=O)ccc1O
CCCCO
CC1CCC(C(C)C)C(O)C1 (stereo not given)
CC12C=CCC1C1CCC3CC(=O)CCC3(C)C1CC2 (stereo not given)
CC(C)CC(=O)O

Odorant receptor agonist call, active:
CCCCCCCCCCC=O

Each compound was assayed on T4, OR2T4. Details: stereoisomer not certain.
T4 sequence (whole entry): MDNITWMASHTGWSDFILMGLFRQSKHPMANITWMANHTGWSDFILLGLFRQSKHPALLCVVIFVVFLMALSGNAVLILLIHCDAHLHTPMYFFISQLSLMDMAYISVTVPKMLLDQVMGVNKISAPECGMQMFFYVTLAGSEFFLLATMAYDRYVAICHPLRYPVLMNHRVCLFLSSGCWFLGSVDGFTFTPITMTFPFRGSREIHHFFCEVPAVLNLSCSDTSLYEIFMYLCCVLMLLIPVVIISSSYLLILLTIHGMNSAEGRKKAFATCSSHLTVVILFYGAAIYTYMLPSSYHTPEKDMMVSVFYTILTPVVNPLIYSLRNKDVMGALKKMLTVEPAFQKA
Method in brief: as §1

Odorant receptor agonist call, active:
CC1COCc2cc3c(cc21)C(C)(C)C(C)C3(C)C (stereo not given)

Odorant receptor agonist call, inactive:
CC12C=CCC1C1CCC3=CC(=O)CCC3(C)C1CC2 (stereo not given)
CCCCCC(=O)O
CCCC(=O)O
CC(C)CCC(=O)O
C=CCc1ccc(OC)c(OC)c1
CC=Cc1ccc(O)c(OC)c1
O=C1CCCCCCCCCCCCCCO1
CC(C)C(=O)O
C=CC(C)(O)CCC=C(C)C (stereo not given)
COc1cc(C)ccc1O
CCCCCCCC=O
COc1cc(C=O)ccc1O
CC(=O)OCC=C(C)CCC=C(C)C
COc1ccccc1O
c1ccc(Oc2ccccc2)cc1
CCCCO
CC(=O)OC1CC2CCC1(C)C2(C)C (stereo not given)
CC1CCC(C(C)C)C(O)C1 (stereo not given)
CC12C=CCC1C1CCC3CC(=O)CCC3(C)C1CC2 (stereo not given)
C=CCc1ccc(OC(C)=O)c(OC)c1
O=C1CCCCCCCCCCCC(=O)OCCO1
CCCCCCCCCCC=O
CC(=O)OC(C)(C)C1CC=C(C)CC1 (stereo not given)
CC12CCC(CC1)C(C)(C)O2
CCCCCOC(C)=O
CC(C)CC(=O)O

Reference: the M2OR odorant receptor database
